PubChem BioAssay AID743238 (Broad Institute, 2013)
Screen size: about 360,000 compounds; about 200 (0.056%) were called active. This list was built around the results that the source calls inconclusive (neither active nor inactive); the mix of calls is not that of the screen.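 Rule for the calls: active = mean normalized replicate activation at least 10% and every replicate at or above 10%; inconclusive = only one of the two criteria met; inactive = mean below 10% and not all replicates reach 10%.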

Test: activators of inactive X chromosome reactivation, primary screen, imaging, XiGFP fibroblasts, GFP high-content imaging, set 2 (AID 743238);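 note: 0% = median of on-plate neutral control wells and 100% = ellipticine 6 µM median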
Conditions: XiGFP mouse fibroblasts, % GFP-positive cells imaging, 3 d; at 7.58 µM; stronger effect = higher value; cells co-treated with 5-aza-dC sensitizer; scaled so ellipticine positive control = 100%
Procedure, shortened: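 System: SV40-immortalized XiGFP fibroblast cells, line 68-5-11 / Incubation: 3-day compound exposure, then 15 min fixation at room temperature / Compound: single concentration per compound, delivered by pin transfer / Buffer or medium: DMEM plus 5-aza-dC sensitizer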

Row | SMILES | activation
1 | CNc1ncnc(Sc2ccc(Cl)cc2)c1[N+](=O)[O-] | inconclusive: 10.6%
2 | Cc1ccc(N2C(=O)c3cccc4c(N)ccc(c34)C2=O)c2cccnc12 | active: 116%
3 | COc1cccc(CNC(=O)CNC(=S)N(Cc2ccccc2)Cc2ccccc2F)c1 | inconclusive: 35.2%
4 | CCOC(=O)c1sc2nc(CSc3ccccc3)[nH]c(=O)c2c1C | active: 21.4%
5 | C[C@@H]1CN([C@@H](C)CO)C(=O)c2cc(NS(C)(=O)=O)ccc2O[C@@H](C)CCCCO[C@@H]1CN(C)Cc1ccccc1 | inconclusive: 10.2%
6 | CC(C)(C)OC(=O)C[C@@H]1C/C=C\C[C@@H](CC(=O)N[C@@H](CO)Cc2ccccc2)C(=O)NC[C@@H](c2ccccc2)OC1=O | inactive: -0.369%
7 | COc1cccc(C#Cc2ccc([C@H]3[C@H](CO)N4C(=O)CN(C(=O)Cc5cccnc5)C[C@@H]34)cc2)c1 | inactive: 0.442%
8 | COCC(=O)N1CC2(CCN(Cc3ccccc3)CC2)c2c(n(C)c3cc(OC)ccc23)[C@H]1CO | inactive: -0.076%
9 | NS(=O)(=O)c1ccc(CNC(=O)C2CCCN2C(=O)c2cccs2)cc1 (centres undefined) | inactive: -0.022%
10 | Cc1cccc2sc(N(CCCN(C)C)C(=O)CN3C(=O)c4ccccc4C3=O)nc12 | inconclusive: 13.7%
11 | C[C@@H]1CN([C@H](C)CO)C(=O)c2cc(NC(=O)Nc3ccc4c(c3)OCO4)ccc2O[C@@H](C)CCCCO[C@@H]1CN(C)C(=O)Cc1ccccc1 | inconclusive: 21%
12 | CN(C)CC(=O)N1CC2(C1)[C@@H](c1ccccc1)[C@H](CO)N2C(=O)C1CC1 | inconclusive: 11.6%
13 | COc1ccc(C(=O)CN2Cc3ccccc3C2=N)cc1 | inconclusive: 12.7%
14 | COc1ccc(NC(=O)Nc2ccc3c(c2)C(=O)N([C@H](C)CO)C[C@H](C)[C@H](CN(C)Cc2ccccc2)OCCCC[C@H](C)O3)cc1 | inactive: 0.0265%
15 | COc1ccccc1C(=O)Nc1nnc(S(=O)(=O)N2CCCCCC2)s1 | inconclusive: 12.3%
16 | COc1cc(/C=C/C(=O)c2ccc3c(c2)OCCO3)cc(Br)c1OCC(=O)N(C)C | inconclusive: 20.2%
17 | COc1ccc(S(=O)(=O)N(C)C[C@@H]2Oc3c(NC(=O)CCCCCC(=O)Nc4ccccc4N)cccc3C(=O)N([C@@H](C)CO)C[C@H]2C)cc1 | inactive: 0.286%
18 | CCN(CC)CCCN=Cc1c(O)n(-c2cccc(C)c2)c(=O)c2ccccc12 | inconclusive: 11.2%
19 | COc1ccccc1NC(=O)Cc1cccc2ccccc12 | inactive: 0.077%
20 | CC1=NN(c2ccc(Cl)c(C(=O)O)c2)C(=O)/C1=C\c1ccc(-c2ccc(C(=O)O)cc2)o1 | inactive: 0.0325%
21 | CCN(CC)c1ccc(/C=C/C(=O)C2C(=O)C=C(C)OC2=O)cc1 (centres undefined) | inconclusive: 19.8%
22 | CC[N+]1=C(C)C(C)(C)c2cc(C)ccc21 | active: 73.3%
23 | COc1ccccc1-c1cc(C(=O)N2CCCc3ccccc32)no1 | inconclusive: 38.4%
24 | C[C@@H]1CCCCO[C@H](CN(C)C(=O)Nc2ccc(C(F)(F)F)cc2)[C@H](C)CN([C@H](C)CO)C(=O)c2cc(NC(=O)CCC(F)(F)F)ccc2O1 | inconclusive: 13.9%
25 | C[C@@H]1CN([C@@H](C)CO)S(=O)(=O)c2ccc(C#CC3CC3)cc2O[C@H]1CN(C)Cc1ccc(F)cc1 | active: 18.4%

Look-ups from above.
Cc1cccc2sc(N(CCCN(C)C)C(=O)CN3C(=O)c4ccccc4C3=O)nc12 | activation: inconclusive: 13.7%
COc1ccc(S(=O)(=O)N(C)C[C@@H]2Oc3c(NC(=O)CCCCCC(=O)Nc4ccccc4N)cccc3C(=O)N([C@@H](C)CO)C[C@H]2C)cc1 | activation: inactive: 0.286%
COc1ccccc1NC(=O)Cc1cccc2ccccc12 | activation: inactive: 0.077%
CN(C)CC(=O)N1CC2(C1)[C@@H](c1ccccc1)[C@H](CO)N2C(=O)C1CC1 | activation: inconclusive: 11.6%

Following part.

Row | SMILES | activation
26 | COc1cccc(CNC(=O)c2cc(S(=O)(=O)N3CCOCC3)cn2C)c1 | active: 22.7%
27 | Cc1ccc(S(=O)(=O)N(C)c2ccc(C)c([N+](=O)[O-])c2)cc1 | active: 20.9%
28 | COc1ccc(Cl)cc1C(=O)Nc1ccccc1N1CCCCC1 | inconclusive: 48.9%
29 | CCCN(CCC)c1nc(-c2ccccn2)nc2ccccc12 | inactive: 0.668%
30 | CCNC(=O)Nc1ccc2c(c1)C(=O)N(C)[C@H]1CC[C@@H](CC(=O)N[C@H](C)c3ccccc3)O[C@H]1CO2 | inactive: -0.0395%
31 | CN1OC[C@@H]2CN(Cc3ccccc3)[C@H](c3cccc(N4CCOCC4)c3)C[C@@H]21 | inconclusive: 10.2%
32 | O=C(CCNC(=O)OCC1c2ccccc2-c2ccccc21)NOCc1ccccc1 | inactive: -0.09%
33 | CCOC(=O)Cn1c(=NC(=O)c2ccc([N+](=O)[O-])s2)sc2ccccc21 | active: 17.5%
34 | O=C(c1cnccn1)N1CC(=O)N2[C@H](CO)[C@@H](c3ccc(-c4cccc(F)c4)cc3)[C@@H]2C1 | inconclusive: 12.8%
35 | C[C@@H]1CCCCO[C@@H](CN(C)C(=O)Nc2ccc(C(F)(F)F)cc2)[C@@H](C)CN([C@H](C)CO)C(=O)c2cc(NS(=O)(=O)c3ccc(F)cc3)ccc2O1 | inconclusive: 10.8%
36 | COCCN(C(=S)Nc1cccc(C)c1)C(C)c1cccnc1 (centres undefined) | inconclusive: 21%
37 | C[C@@H]1CN([C@H](C)CO)C(=O)c2cc(NC(=O)CCC(F)(F)F)ccc2O[C@@H]1CN(C)CC1CCCCC1 | inactive: -1.12%
38 | Cc1ccc(NC(=O)c2ccc(=O)[nH]c2)cc1S(=O)(=O)N1CCCCCC1 | inconclusive: 19%
39 | COC(=O)c1cc(NS(=O)(=O)c2ccc(NC(C)=O)cc2)ccc1Cl | inconclusive: 13.6%
40 | Nc1[nH]c2cc([N+](=O)[O-])ccc2c1-c1ccccn1 | active: 100%
41 | COc1ccc(S(=O)(=O)N(C)C[C@H]2OCCCC[C@@H](C)Oc3ccc(NC(=O)NC(C)C)cc3C(=O)N([C@@H](C)CO)C[C@H]2C)cc1 | inconclusive: 31.2%
42 | COc1ccc(NC(=O)N(C)[C@H]2C[C@H]3c4[nH]c5ccc(-c6ccc(OC)cc6)cc5c4CCN3C(=O)[C@H]2[C@H](C)O)cc1 | inconclusive: 15.8%
43 | COc1ccc(C2NN=C(c3ccc(C)cc3)S2)cc1 (centres undefined) | inactive: -0.007%
44 | CC(C)CC#Cc1ccc([C@@H]2[C@@H](CO)N3C(=O)CN(C(=O)c4cccc(F)c4)C[C@H]23)cc1 | inconclusive: 11.1%
45 | C=CCn1c(SCC(=O)N(CC)C2CCS(=O)(=O)C2)nc2sc3c(c2c1=O)CCC3 (centres undefined) | active: 137%
46 | COCCN(C(=O)c1ccc2c(c1)C(=O)N(c1ccccc1Cl)C2=O)c1c(N)n(CC(C)C)c(=O)[nH]c1=O | active: 142%
47 | O=C1c2ccc3c4c(ccc(c24)C(=O)N1c1cccc(O)c1)C(=O)N(c1cccc(O)c1)C3=O | inconclusive: 27.6%
48 | N#CC(C#N)=C1C=C2C=C(N3CCCCCC3)CCC2CC1 (centres undefined) | inconclusive: 396%
49 | O=C(Nc1cccc(C(=O)O)c1)/C(=C\c1ccccc1)NC(=O)c1ccc(Br)o1 | active: 97.3%
50 | COc1ccc(-c2ccc(C(=O)NCc3cccs3)c3occc23)c(C)c1 | inconclusive: 10.3%

3 entries from above, tab-delimited.
Row	SMILES	activation
8	COCC(=O)N1CC2(CCN(Cc3ccccc3)CC2)c2c(n(C)c3cc(OC)ccc23)[C@H]1CO	inactive: -0.076%
9	NS(=O)(=O)c1ccc(CNC(=O)C2CCCN2C(=O)c2cccs2)cc1 (centres undefined)	inactive: -0.022%
10	Cc1cccc2sc(N(CCCN(C)C)C(=O)CN3C(=O)c4ccccc4C3=O)nc12	inconclusive: 13.7%

Additional compounds follow:

Row | SMILES | activation
51 | CC(C)NC(=O)Nc1ccc2c(c1)C(=O)N([C@@H](C)CO)C[C@H](C)[C@@H](CN(C)C(=O)c1ccccc1)OCCCC[C@@H](C)O2 | inactive: 0.025%
52 | CCOC(=O)Nc1cc2c(c(N)n1)N=C(c1ccccc1)CN2 | inconclusive: 10.8%
53 | COc1cc2c3nnc(-c4ccccc4)c-3cn(Cc3ccccc3F)c2cc1OC | active: 96.8%
54 | Cc1cc(C)c2[nH]c(O)c(N=NC(=S)NCC3CCCO3)c2c1 (centres undefined) | inactive: 0.0515%
55 | COc1cc(CN2CCC(C(=O)NCC(C)(C)CN(C)C)CC2)ccc1OCc1ccccc1 | inconclusive: 12.9%
56 | Oc1ccc(/C=N/Nc2ccnc3cc(Cl)ccc23)c(O)c1 | active: 68.1%
57 | COc1ccc(Nc2nc(C)nc3c2oc2ccccc23)c(OC)c1 | inactive: 0.326%
58 | COc1ccccc1NC(=O)N[C@@H]1CC[C@H](CCNS(=O)(=O)c2ccc(C)cc2)O[C@@H]1CO | inactive: 0.633%
59 | Nc1c(C(=O)O)cnn1-c1ccc([N+](=O)[O-])cc1 | inconclusive: 17%
60 | O=[N+]([O-])c1ccc(N/N=C/c2ccc[nH]2)cc1 | inconclusive: 17.9%
61 | CC(C)(C)c1ccc(Cn2c(=O)cnc3ccccc32)cc1 | inactive: -0.035%
62 | CC(=Nc1ccc(Cl)cc1N)c1c(O)cc(C)oc1=O | inconclusive: 13.6%
63 | O=C(Nc1ccccc1)N1C[C@@H]2[C@H](c3ccccc31)[C@H](CO)N2C(=O)c1ccccc1F | inconclusive: 18.7%
64 | COc1cccc(-c2ccc(C3[C@@H]4CN(C(=O)C5CCCCC5)C[C@H]3N4)cc2)c1 (some centres undefined) | inconclusive: 14.7%
65 | CCCNC(=O)N1CC2(CN(S(C)(=O)=O)C2)c2c(n(C)c3cc(OC)ccc23)[C@H]1CO | inconclusive: 10.5%
66 | Cc1noc(C)c1S(=O)(=O)N(C)C[C@@H]1OCCCC[C@@H](C)Oc2ccc(NC(=O)Nc3ccccc3)cc2C(=O)N([C@@H](C)CO)C[C@@H]1C | inactive: 0.183%
67 | CCN1CCc2c(sc(NC(=O)Nc3ccc(Cl)c(Cl)c3)c2C(N)=O)C1 | active: 105%
68 | Nc1nnc(SCC(=O)c2ccc([N+](=O)[O-])cc2)s1 | inconclusive: 15%
69 | Oc1cc2c(c(Cl)c1O)CCNCC2c1ccccc1 (centres undefined) | inconclusive: 17.2%
70 | O=C(Cn1[nH]c(=O)c2ccccc2c1=O)Nc1cccc(S(=O)(=O)N2CCCCCC2)c1 | inactive: 0.027%
71 | Cc1cc(-c2nn(-c3ccccc3F)cc2CNCCc2cnc[nH]2)c(C)s1 | inactive: 0.44%
72 | CC=Cc1ccc2n(c1=O)C[C@@H]1[C@@H](CO)[C@H](C(=O)NCCCN(C)C)[C@H]2N1C(=O)c1ccccc1F (mixture of isomers) | inconclusive: 32.8%
73 | CCCOc1ccc(Oc2nc(-c3ccncc3)nc3ccccc23)cc1 | inconclusive: 10.6%
74 | COC(=O)c1c(NC(=O)c2ccc(C)cc2)csc1C | inconclusive: 19.8%
